Experimental data published in publication PMC3914952.
No constants are given. Whether binding was seen depends on the method and setting. In cells and extracts the contact can be indirect. Binding calls can cover weak binding; strength is not graded here.

Sequences of proteins named here, by UniProt entry; tags and fusion partners are left off. A change or cut given only in a name is not applied to a line headed by its entry.
UniProt O14936: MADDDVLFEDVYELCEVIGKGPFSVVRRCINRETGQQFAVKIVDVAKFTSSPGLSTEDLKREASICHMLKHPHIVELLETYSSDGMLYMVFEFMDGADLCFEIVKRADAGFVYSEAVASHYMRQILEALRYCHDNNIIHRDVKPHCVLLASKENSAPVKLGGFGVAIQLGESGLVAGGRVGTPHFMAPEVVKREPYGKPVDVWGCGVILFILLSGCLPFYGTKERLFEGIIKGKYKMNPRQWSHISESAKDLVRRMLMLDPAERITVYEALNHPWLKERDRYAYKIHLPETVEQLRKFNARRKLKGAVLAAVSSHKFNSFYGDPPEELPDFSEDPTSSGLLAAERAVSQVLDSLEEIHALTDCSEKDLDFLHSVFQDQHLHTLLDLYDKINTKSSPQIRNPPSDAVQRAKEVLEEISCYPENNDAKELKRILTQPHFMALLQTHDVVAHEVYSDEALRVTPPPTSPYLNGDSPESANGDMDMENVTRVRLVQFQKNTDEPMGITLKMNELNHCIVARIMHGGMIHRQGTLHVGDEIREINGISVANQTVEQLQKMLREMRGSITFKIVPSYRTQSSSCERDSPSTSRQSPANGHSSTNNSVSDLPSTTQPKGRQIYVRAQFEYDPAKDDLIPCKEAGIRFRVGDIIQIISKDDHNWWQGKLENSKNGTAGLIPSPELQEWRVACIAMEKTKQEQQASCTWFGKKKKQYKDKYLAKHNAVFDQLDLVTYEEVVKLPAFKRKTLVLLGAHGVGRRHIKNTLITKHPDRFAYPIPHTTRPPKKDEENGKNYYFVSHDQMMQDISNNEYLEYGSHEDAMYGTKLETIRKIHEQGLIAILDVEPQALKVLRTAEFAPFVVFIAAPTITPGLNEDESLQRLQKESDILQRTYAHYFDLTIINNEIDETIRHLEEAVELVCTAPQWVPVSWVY
UniProt O75145: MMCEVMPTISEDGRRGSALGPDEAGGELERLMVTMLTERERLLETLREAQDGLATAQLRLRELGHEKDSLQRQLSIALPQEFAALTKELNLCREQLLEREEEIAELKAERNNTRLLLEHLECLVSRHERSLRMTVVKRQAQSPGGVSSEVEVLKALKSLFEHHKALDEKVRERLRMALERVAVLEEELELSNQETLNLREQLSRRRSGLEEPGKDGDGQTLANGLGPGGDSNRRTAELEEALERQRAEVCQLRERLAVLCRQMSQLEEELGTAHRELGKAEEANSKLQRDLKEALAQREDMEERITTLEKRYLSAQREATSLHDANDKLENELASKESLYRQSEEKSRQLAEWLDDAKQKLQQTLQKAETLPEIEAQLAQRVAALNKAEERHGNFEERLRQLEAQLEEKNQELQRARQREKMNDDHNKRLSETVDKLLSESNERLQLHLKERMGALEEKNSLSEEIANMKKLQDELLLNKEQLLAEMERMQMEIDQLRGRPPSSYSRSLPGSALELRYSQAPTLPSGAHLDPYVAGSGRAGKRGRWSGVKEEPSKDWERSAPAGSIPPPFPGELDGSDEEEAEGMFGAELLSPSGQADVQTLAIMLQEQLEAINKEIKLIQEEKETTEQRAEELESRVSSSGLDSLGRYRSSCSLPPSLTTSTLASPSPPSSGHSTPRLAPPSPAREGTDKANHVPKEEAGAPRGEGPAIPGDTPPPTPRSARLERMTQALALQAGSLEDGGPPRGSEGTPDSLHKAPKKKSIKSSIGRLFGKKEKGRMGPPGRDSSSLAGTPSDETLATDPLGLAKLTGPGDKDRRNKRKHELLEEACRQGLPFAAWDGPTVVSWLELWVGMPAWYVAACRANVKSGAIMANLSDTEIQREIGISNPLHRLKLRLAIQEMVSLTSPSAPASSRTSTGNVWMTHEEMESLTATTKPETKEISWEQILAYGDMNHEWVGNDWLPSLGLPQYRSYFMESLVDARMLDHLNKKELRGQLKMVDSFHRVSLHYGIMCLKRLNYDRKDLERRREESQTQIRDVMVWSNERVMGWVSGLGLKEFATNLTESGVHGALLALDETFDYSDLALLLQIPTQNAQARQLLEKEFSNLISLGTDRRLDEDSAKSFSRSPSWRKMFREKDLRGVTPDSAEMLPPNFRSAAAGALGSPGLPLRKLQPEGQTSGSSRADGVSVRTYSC

Target: GFP-CASK (wild-type) (human) (UniProt O14936)
Test: co-IP; GFP-CASK (wild-type or mutant) held on GFP-Trap agarose beads from lysates of transfected HEK-293 cells (PBS, 2 mM DTT, 2 mM EDTA, protease inhibitors, 1% Triton-X; 1 hour at 4°C); liprin-α3 or FLAG-Mint-1 co-transfected, Veli native; western blot with anti-liprin-α3, anti-FLAG or anti-velis

binding: binds
Substance: liprin-α3 (from UniProt O75145 1-1194)
